Some of the results follow. These are further read-outs of the screen, such as a control signal, another cell line or another target. No call is given for them. Compounds called inactive in the main read-out are mostly missing here. Words in brackets tell the shape of the fitted curve; partial curves, single points and poor fits give uncertain potencies.
Experiment: Confirmation Concentration-Response Assay for Modulators of Lamin A Splicing
Conditions: HeLa lamin A splicing GFP/RFP minigene, Acumen, 48 h; for ratio activity: GFP/RFP ratio at top concentration; for ratio activity / RFP activity: at 46.1 µM; for RFP activity: RFP channel at top concentration
Procedure, shortened: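 Splicing correction read as ratio of GFP (500-530 nm) to DsRed2 (575-640 nm) object intensity by Acumen cytometry, after 48 h compound treatment of stable HeLa reporter cells (600/well) in 2% FBS medium.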

[1] = measured here: GFP/RFP ratio splicing readout
[2] = measured here: RFP viability/nonspecific counter channel

Compound	ratio activity [%]	RFP activity [%]	AC50 [1]	AC50 [2]
CC(C)CCNC(=O)C(c1ccncc1)N(Cc1cccs1)C(=O)Cn1nnc(-c2ccc(F)cc2)n1 (configuration not stated)	-64.3	-53.2	3.55 µM [falling, full curve]	5.01 µM [falling, full curve, poor fit]
Cn1nnnc1Sc1ncnc2scc(-c3ccccc3)c12	-39.7	-52.3	2.24 µM [falling, full curve]	28.2 µM [falling, partial curve, poor fit]
Cc1noc(C)c1-c1ccc2ncnc(NCc3cccc(Cl)c3)c2c1	-33.9	-30.6	8.91 µM [falling, full curve, poor fit]	31.6 µM [falling, single point]
Nc1ccc(C(=O)n2c3ccccc3c3ccccc32)cc1	-23.6	-33	0.631 µM [falling, full curve, poor fit]	7.94 µM [falling, full curve, poor fit]
Cc1ccc(CNc2ncnc3ccc(-c4c(C)noc4C)cc23)o1	-33.9	38.3	2.82 µM [falling, full curve]	10 µM [rising, full curve, poor fit]
Cc1ccccc1C(=O)N1CCN(c2ccc(NC(=O)CSc3ccc(Cl)cc3)cc2)CC1	-29.8	-22.7	0.355 µM [falling, full curve, poor fit]	0.178 µM [falling, full curve, poor fit]
CSc1nc(N(C)NC(=O)c2ccc(Cl)cc2)c2ccccc2n1	-21.5	-64	0.398 µM [falling, full curve, poor fit]	31.6 µM [falling, partial curve, poor fit]
C#CCn1c(S(=O)(=O)Cc2ccc(C)cc2)nc(-c2ccccc2)c1-c1ccccc1	-49.4	32.9	3.16 µM [falling, full curve]	12.6 µM [rising, full curve, poor fit]
Cc1nc(Sc2nnnn2C)c2c3c(sc2n1)CCC3	-62.7	-40.6	0.891 µM [falling, full curve]	6.31 µM [falling, full curve, poor fit]
Cc1noc(C)c1-c1ccc2ncnc(NCc3ccc(F)cc3)c2c1	-34.9	-32.4	15.8 µM [falling, partial curve, poor fit]	12.6 µM [falling, single point]
Cc1noc(C)c1-c1ccc2ncnc(NCc3ccc(F)c(F)c3)c2c1	-17.1	-30.4	3.55 µM [falling, full curve]	0.000447 µM [falling, full curve, poor fit]
N=c1ccn2c(n1)OC1C(O)[C@@H](CO)O[C@H]12 (some centres not stated)	-39.7	51.4	0.0355 µM [falling, full curve]	0.447 µM [rising, full curve, poor fit]
CCC(Nc1ncnc2ccc(-c3c(C)noc3C)cc12)c1ccccc1 (configuration not stated)	-42.2	20.6	2.24 µM [falling, full curve]	10 µM [rising, full curve, poor fit]
Cc1ccsc1CNc1ncnc2ccc(-c3c(C)noc3C)cc12	-13.3	-42.1	2.24 µM [falling, full curve, poor fit]	35.5 µM [falling, single point]
Cc1cccc(/C=C(\c2nc3ccccc3[nH]2)S(=O)(=O)c2ccccc2)c1	-24.4	-66.4	1.41 µM [falling, full curve, poor fit]	7.94 µM [falling, full curve, poor fit]
Cc1ccc2nc(NNC(=O)c3ccc(S(=O)(=O)N4CCc5ccccc5C4)cc3)sc2c1	-31.2	46.5	1.41 µM [falling, full curve, poor fit]	3.55 µM [rising, full curve, poor fit]
Cc1noc(C)c1-c1ccc2ncnc(NCc3ccco3)c2c1	-45.5	53.4	3.55 µM [falling, full curve]	15.8 µM [rising, full curve, poor fit]
Cc1cccc(CNc2ncnc3ccc(-c4c(C)noc4C)cc23)c1	-39	30.1	3.98 µM [falling, full curve]	15.8 µM [rising, full curve, poor fit]

3 entries out of the list, arranged by number of heavy atoms, descending.
Compound	ratio activity [%]	RFP activity [%]	AC50 [1]	AC50 [2]
Cc1noc(C)c1-c1ccc2ncnc(NCc3cccc(Cl)c3)c2c1	-33.9	-30.6	8.91 µM [falling, full curve, poor fit]	31.6 µM [falling, single point]
Cc1ccc(CNc2ncnc3ccc(-c4c(C)noc4C)cc23)o1	-33.9	38.3	2.82 µM [falling, full curve]	10 µM [rising, full curve, poor fit]
Cc1nc(Sc2nnnn2C)c2c3c(sc2n1)CCC3	-62.7	-40.6	0.891 µM [falling, full curve]	6.31 µM [falling, full curve, poor fit]
